Test results taken from the supplement of paper PMC10849652.
This is one part of the list.

Protein sequences, listed by entry. Tags and fused reporters are not part of them. Lines headed by an entry give the natural chain unless they say otherwise; changes in a name come on top.
UniProt P14174: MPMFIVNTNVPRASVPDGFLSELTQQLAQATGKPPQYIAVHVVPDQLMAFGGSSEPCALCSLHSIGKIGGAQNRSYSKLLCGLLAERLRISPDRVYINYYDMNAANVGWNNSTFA
UniProt P51948: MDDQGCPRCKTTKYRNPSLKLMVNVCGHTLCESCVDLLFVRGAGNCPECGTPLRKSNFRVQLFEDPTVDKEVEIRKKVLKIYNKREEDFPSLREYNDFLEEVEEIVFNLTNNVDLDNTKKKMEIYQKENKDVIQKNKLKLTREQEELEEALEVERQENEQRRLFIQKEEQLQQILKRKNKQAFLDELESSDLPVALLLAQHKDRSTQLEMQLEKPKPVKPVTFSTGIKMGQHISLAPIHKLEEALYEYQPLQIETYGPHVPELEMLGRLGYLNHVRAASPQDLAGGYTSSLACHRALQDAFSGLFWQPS
UniProt Q9H081: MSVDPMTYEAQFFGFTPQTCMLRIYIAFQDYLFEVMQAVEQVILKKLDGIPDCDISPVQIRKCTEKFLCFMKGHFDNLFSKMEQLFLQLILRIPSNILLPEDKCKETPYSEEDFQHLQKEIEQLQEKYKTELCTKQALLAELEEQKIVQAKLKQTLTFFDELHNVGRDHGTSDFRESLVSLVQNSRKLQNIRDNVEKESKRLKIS
UniProt Q9H000: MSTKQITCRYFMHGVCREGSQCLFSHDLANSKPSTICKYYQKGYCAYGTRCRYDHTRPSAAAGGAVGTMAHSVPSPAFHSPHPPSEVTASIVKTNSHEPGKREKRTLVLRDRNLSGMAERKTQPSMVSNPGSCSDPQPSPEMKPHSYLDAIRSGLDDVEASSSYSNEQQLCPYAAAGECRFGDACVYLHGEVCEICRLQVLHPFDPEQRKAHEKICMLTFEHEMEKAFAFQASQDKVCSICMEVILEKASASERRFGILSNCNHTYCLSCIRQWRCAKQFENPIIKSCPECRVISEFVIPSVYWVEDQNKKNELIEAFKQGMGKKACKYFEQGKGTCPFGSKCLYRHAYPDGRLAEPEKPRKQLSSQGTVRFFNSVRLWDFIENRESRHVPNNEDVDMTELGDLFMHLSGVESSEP
UniProt Q13064: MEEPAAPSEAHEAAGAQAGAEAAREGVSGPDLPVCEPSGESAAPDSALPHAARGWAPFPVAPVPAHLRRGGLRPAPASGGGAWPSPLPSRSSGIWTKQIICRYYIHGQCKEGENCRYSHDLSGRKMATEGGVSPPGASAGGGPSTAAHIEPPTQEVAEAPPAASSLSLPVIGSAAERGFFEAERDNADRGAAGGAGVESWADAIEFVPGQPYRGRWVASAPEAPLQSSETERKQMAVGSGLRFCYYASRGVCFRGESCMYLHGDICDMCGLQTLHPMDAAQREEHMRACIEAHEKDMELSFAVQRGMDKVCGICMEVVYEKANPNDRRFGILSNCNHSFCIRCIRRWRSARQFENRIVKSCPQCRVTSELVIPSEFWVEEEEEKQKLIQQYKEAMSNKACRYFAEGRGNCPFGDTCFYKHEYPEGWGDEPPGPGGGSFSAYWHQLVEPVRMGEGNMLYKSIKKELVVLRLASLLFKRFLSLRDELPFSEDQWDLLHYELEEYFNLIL
UniProt Q96BX8: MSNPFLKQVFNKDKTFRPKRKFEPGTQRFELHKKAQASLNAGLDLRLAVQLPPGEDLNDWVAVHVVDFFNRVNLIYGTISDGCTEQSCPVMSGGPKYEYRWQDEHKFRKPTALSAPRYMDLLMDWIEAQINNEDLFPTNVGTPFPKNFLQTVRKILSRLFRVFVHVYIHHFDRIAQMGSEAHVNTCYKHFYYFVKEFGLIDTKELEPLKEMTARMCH
UniProt Q9BVC4, whole entry, looked up: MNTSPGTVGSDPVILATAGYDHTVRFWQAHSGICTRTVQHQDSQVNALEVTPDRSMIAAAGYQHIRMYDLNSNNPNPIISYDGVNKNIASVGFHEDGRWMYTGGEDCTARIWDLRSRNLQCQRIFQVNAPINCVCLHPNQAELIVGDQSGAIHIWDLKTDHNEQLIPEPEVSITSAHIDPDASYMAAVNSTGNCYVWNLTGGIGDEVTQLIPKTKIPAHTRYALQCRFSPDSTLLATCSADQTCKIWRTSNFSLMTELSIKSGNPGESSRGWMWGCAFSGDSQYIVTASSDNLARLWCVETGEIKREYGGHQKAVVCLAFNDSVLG
UniProt Q14149: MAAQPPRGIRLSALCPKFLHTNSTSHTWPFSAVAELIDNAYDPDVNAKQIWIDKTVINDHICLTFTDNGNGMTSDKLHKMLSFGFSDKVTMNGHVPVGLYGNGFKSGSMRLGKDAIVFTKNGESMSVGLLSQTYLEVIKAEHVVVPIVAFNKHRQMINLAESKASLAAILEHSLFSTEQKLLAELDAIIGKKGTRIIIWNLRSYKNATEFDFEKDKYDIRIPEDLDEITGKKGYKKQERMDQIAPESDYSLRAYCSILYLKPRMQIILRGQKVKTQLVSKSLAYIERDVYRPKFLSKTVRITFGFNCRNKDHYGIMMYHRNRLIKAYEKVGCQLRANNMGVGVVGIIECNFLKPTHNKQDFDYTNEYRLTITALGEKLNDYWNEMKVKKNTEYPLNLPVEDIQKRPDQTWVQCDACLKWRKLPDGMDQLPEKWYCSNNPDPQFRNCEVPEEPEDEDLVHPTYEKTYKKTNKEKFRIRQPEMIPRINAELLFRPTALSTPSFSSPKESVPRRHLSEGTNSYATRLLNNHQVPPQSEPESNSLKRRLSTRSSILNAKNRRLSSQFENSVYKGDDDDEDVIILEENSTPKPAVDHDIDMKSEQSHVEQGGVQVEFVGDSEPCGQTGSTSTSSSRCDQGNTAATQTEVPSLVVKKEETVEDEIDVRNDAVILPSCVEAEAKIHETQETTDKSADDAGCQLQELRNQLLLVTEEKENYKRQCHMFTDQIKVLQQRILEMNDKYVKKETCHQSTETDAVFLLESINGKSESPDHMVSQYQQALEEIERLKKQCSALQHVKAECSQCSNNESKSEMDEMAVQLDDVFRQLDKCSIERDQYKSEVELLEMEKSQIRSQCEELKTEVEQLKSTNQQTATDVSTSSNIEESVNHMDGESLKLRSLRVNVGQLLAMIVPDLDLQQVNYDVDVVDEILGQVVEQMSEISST
UniProt Q9NQG6: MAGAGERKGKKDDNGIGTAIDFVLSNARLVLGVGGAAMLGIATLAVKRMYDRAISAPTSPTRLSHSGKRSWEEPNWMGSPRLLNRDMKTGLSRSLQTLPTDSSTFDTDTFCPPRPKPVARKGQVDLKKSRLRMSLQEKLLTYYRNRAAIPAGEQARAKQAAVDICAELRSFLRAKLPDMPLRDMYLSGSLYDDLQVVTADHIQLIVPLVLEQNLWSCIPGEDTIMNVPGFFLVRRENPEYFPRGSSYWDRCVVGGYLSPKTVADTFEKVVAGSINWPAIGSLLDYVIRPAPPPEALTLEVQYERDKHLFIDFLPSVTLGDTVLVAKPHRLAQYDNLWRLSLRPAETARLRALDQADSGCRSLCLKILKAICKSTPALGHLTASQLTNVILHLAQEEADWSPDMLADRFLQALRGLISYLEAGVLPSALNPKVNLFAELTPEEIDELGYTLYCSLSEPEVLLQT
UniProt Q7L1V2: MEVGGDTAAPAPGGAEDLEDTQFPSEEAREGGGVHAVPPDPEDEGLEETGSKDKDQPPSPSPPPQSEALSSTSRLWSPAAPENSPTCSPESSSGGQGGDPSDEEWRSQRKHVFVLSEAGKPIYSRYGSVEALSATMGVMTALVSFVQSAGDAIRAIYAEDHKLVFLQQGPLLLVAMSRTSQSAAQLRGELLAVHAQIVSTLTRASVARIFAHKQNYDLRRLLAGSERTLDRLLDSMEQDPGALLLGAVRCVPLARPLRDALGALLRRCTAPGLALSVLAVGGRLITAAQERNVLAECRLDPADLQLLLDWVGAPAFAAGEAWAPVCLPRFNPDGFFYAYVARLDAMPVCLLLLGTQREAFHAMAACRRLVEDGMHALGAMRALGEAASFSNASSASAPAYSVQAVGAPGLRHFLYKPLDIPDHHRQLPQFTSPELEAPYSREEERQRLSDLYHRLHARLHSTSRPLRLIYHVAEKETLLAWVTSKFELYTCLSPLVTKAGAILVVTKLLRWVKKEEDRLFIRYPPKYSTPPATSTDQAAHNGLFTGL
UniProt Q00013: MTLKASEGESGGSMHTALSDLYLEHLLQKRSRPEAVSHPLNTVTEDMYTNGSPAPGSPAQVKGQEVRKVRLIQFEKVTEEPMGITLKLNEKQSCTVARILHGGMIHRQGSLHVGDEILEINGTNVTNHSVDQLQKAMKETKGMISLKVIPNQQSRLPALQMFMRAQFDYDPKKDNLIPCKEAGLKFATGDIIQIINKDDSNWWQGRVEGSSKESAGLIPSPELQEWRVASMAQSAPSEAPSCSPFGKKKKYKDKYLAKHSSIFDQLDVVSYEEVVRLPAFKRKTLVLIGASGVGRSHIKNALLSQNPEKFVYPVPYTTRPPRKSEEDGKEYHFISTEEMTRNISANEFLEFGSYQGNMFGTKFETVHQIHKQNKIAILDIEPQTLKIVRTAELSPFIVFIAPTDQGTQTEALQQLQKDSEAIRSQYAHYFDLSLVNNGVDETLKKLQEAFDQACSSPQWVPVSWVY
UniProt P25325: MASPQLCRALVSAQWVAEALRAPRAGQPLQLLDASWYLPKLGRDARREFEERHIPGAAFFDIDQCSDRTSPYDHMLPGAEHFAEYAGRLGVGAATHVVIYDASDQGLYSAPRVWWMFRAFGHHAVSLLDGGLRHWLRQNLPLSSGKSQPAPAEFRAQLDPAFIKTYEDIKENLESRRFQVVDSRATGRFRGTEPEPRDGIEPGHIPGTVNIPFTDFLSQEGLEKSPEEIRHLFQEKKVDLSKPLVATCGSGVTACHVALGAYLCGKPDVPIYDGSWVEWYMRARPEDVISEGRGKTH
UniProt Q8IYU8: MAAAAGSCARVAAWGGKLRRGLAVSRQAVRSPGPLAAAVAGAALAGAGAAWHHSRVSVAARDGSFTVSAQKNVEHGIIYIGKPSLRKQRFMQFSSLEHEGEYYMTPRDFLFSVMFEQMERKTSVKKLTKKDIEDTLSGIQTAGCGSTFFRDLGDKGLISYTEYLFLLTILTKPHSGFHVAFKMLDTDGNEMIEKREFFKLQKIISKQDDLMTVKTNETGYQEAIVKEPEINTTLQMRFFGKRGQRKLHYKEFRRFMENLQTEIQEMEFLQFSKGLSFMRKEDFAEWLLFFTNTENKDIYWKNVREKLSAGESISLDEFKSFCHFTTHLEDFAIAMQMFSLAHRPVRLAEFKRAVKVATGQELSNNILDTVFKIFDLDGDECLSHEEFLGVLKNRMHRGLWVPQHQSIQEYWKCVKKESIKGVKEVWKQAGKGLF
UniProt Q8N4C8: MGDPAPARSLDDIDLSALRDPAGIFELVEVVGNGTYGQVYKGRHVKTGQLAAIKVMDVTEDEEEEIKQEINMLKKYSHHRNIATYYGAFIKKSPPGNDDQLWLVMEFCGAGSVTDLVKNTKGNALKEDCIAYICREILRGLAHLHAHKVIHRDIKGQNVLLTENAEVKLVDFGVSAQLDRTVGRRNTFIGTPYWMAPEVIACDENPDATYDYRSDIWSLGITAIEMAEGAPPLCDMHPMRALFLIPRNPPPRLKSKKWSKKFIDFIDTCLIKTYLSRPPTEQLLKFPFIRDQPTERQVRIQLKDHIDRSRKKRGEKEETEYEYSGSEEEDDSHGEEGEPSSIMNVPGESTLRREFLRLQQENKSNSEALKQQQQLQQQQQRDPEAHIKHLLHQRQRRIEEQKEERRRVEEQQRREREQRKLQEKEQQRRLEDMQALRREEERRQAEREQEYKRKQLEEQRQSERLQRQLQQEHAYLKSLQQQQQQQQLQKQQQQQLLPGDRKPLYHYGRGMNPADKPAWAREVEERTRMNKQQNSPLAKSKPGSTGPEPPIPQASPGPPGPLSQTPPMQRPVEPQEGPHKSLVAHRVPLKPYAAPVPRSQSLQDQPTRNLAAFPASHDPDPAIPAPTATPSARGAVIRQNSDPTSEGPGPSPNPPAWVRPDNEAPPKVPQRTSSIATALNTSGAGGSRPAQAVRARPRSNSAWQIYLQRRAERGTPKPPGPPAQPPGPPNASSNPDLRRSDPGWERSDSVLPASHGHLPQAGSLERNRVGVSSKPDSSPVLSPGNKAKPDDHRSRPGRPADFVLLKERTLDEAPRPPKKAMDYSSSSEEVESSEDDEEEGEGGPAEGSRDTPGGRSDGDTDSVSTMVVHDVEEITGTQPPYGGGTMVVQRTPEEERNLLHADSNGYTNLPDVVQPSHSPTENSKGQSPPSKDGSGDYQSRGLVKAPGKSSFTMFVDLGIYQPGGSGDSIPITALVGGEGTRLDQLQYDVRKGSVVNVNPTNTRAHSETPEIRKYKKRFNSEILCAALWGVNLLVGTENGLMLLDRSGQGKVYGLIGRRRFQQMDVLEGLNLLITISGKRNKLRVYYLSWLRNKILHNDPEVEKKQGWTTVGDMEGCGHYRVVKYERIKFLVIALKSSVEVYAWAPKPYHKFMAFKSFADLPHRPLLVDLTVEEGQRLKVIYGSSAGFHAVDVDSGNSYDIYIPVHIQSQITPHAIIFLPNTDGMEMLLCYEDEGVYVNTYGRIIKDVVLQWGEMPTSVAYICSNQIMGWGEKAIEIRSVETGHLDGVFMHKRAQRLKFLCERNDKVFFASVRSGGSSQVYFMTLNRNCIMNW

These targets were tested with COC(=O)[C@H](CCSC)NC(=O)C1=C(C=C(C=C1)NC[C@H](CS)N)C2=CC=CC=C2 (assay: log2 fold change, soluble protein after heating vs DMSO (PISA); higher = thermal stabilisation; K562 cells, 10 uM, 30 min; active = over 0.2 and 3.5 SD of the protein, either way, in both replicates (recomputed)).
Method in brief: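 K562 cells (2×10^6 cells/mL) were treated with 10 μM compound for 30 min, and aliquots were heated for 3 min over 48°C-58°C. Pooled aliquots were extracted in PBS with 0.5% NP-40 at 4°C, and the supernatant after 21,000xg for 90 min was measured by TMTpro 16plex LC-MS/MS with channel sums equalised. Reported thermal stability, relative to control samples and from duplicates, is a log2 fold change.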

log2 fold change, inactive:
MRPL47 (UniProt Q9HD33) -0.022
MLXIP (UniProt Q9HAP2) 0.122
MRPL4 (UniProt Q9BYD3) -0.016
MIF (UniProt P14174) 0.06
MMGT1 (UniProt Q8N4V1) -0.062
MMS19 isoform 8 (UniProt Q96T76) -0.008
MNAT1 (UniProt P51948) -0.009
MRPL53 (UniProt Q96EL3) -0.003
MIS12 (UniProt Q9H081) -0.052
MRPL37 (UniProt Q9BZE1) -0.039
MKRN2 (UniProt Q9H000) -0.005
MITD1 (UniProt Q8WV92) -0.043
MIEN1 (UniProt Q9BRT3) 0.129
MKRN3 (UniProt Q13064) -0.028
MICU1 isoform 3 (UniProt Q9BPX6) -0.05
MOB3A (UniProt Q96BX8) -0.104
MLST8 (UniProt Q9BVC4) -0.106
MND1 (UniProt Q9BWT6) 0.023
MRFAP1 (UniProt Q9Y605) -0.027
MRPL34 (UniProt Q9BQ48) 0.035
MICOS13 (UniProt Q5XKP0) -0.005
MRPL46 (UniProt Q9H2W6) -0.026
MORC3 (UniProt Q14149) -0.048
MIEF1 (UniProt Q9NQG6) -0.018
MON1B (UniProt Q7L1V2) -0.013
MPP1 (UniProt Q00013) -0.047
MPST isoform 2 (UniProt P25325) -0.031
MICU2 (UniProt Q8IYU8) -0.044
MOV10 (UniProt Q9HCE1) 0.053
MPRIP isoform 2 (UniProt Q6WCQ1) 0.02
MIEF1 (UniProt L0R8F8) 0.015
MRPL50 (UniProt Q8N5N7) 0.061
MINK1 (UniProt Q8N4C8) 0.012
MRPL28 (UniProt Q13084) -0.06
MRPL42 (UniProt Q9Y6G3) 0.036
MPHOSPH10 (UniProt O00566) 0.045

A run of entries from the list above:
log2 fold change, inactive:
MPP1 (UniProt Q00013) -0.047
MPST isoform 2 (UniProt P25325) -0.031
